Source: PMC6480881
No constants are given. Whether binding was seen depends on the method and setting. Binding seen in cells or lysates may run through a third protein. Some binding calls cover weakened binding; strength is not graded here. Where a sequence is shown, tags or fusion partners need not be part of it.

By UniProt entry, the sequences of proteins in these tests, tags left out.
UniProt P05412: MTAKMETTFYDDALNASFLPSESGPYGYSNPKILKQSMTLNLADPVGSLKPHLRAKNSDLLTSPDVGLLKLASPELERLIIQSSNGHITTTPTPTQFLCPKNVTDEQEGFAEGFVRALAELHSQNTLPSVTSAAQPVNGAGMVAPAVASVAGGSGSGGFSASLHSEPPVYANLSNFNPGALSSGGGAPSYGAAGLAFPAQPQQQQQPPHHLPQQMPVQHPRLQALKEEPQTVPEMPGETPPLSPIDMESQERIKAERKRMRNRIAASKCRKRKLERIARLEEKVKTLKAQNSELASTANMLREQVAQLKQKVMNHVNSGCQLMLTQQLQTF

B1: myc-tagged TCF21 (protein, UniProt O43680 1-179)
chain: MSTGSLSDVEDLQEVEMLECDGLKMDSNKEFVTSNESTEESSNCENGSPQKGRGGLGKRRKAPTKKSPLSGVSQEGKQVQRNAANARERARMRVLSKAFSRLKTTLPWVPPDTKLSKLDTLRLASSYIAHLRQILANDKYENGYIHPVNLTWPFMVAGKPESDLKEVVTASRLCGTTAS

Experiments:
myc-tagged TCF21 (human) = biological target: T1, myc-tagged TCF21 (human) (UniProt O43680); experiment: co-IP; HEK293 cells transfected with myc-tagged TCF21 and non-tagged JUN plasmids; Nuclear complex Co-IP kit (Active Motif); IP with myc-tag or JUN antibody, western blot for the other protein
T1 sequence: B1 chain

JUN (non-tagged) (human) = JUN (non-tagged) (human) (UniProt P05412); experiment: as above

Row | binding (myc-tagged TCF21 (human)) | binding (JUN (non-tagged) (human)) | Molecule
1 | binds |  | JUN (non-tagged) (from UniProt P05412 1-331)
2 |  | binds | B1
